Drawing on article doi:10.1101/2021.03.24.436811, this text covers binding for 15 molecules.

The chains behind the UniProt entries cited, without tags or fusion partners.
UniProt Q39255: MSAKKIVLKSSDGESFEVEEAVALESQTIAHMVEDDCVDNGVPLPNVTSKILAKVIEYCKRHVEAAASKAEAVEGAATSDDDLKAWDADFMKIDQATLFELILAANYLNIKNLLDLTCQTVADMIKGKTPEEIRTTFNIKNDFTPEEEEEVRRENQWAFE
UniProt Q94AH6: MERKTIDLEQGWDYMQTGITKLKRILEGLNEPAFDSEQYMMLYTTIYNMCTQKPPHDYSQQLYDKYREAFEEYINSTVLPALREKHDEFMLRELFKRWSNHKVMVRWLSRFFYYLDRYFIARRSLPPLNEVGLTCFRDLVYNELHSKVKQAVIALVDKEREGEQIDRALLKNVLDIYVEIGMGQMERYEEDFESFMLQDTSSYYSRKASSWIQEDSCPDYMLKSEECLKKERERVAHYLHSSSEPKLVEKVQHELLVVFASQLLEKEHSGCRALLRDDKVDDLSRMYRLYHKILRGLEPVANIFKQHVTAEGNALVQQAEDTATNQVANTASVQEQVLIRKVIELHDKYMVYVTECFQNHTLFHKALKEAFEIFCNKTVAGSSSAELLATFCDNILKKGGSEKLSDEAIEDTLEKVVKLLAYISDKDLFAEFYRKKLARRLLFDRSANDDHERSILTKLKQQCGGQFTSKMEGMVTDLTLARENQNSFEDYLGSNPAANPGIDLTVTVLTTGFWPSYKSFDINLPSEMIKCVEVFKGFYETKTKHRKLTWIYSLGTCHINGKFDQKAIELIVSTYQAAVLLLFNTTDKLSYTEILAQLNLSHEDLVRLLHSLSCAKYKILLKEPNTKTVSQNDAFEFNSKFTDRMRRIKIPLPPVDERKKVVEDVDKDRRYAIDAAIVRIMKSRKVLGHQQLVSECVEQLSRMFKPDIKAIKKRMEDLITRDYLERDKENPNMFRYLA

T1: 3HA-FBW2 (3x HA epitope at the N-terminus of the F-box protein FBW2) (Arabidopsis thaliana) (UniProt Q9ZPE4)
T1 sequence: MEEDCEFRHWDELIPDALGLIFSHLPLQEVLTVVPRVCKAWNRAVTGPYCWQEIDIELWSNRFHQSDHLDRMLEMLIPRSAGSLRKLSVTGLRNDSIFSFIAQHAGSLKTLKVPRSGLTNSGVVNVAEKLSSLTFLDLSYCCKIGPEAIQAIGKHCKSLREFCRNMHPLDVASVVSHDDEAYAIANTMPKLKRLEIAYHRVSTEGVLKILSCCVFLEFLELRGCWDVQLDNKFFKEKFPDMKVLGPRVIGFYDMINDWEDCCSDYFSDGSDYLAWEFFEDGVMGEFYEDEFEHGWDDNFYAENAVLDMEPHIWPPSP

B1: ASK20, endogenous (protein, UniProt A8MQG7 1-352)
chain: MSEGDLAVMKPETMKSYIWLQTADGSIQQVEQEVAMFCPMICQEVIQKGVGSSKNHAISLPQRVNPAMFSLILDYCRFHQLPGRSNKERKTYDERFIRMDTKRLCELTSAADSLQLKPLVDLTSRALARIIEGKNPEEIREIFHLPDDLTEEEKLEPLKNSMDDPRIRLLNRLYAKKRKELKERERLKNVEVEEHVDERSVDDLLSFINGRDHKAVKMSKGKKKKKKKKDQKIVSSNNIHDKESHDLRSKQQCVEEIGSSMREVPNLLSAEDDISTPNAGSEDEDIDDEIDPAMRELLDREVEDFAQRLNSNWVRSLGKERRPVHFSINGNGTTRRHTGMVSIWRPCMFTLF
B2: AGO10, endogenous (protein, UniProt Q9XGW1 1-988)
chain: MPIRQMKDSSETHLVIKTQPLKHHNPKTVQNGKIPPPSPSPVTVTTPATVTQSQASSPSPPSKNRSRRRNRGGRKSDQGDVCMRPSSRPRKPPPPSQTTSSAVSVATAGEIVAVNHQMQMGVRKNSNFAPRPGFGTLGTKCIVKANHFLADLPTKDLNQYDVTITPEVSSKSVNRAIIAELVRLYKESDLGRRLPAYDGRKSLYTAGELPFTWKEFSVKIVDEDDGIINGPKRERSYKVAIKFVARANMHHLGEFLAGKRADCPQEAVQILDIVLRELSVKRFCPVGRSFFSPDIKTPQRLGEGLESWCGFYQSIRPTQMGLSLNIDMASAAFIEPLPVIEFVAQLLGKDVLSKPLSDSDRVKIKKGLRGVKVEVTHRANVRRKYRVAGLTTQPTRELMFPVDENCTMKSVIEYFQEMYGFTIQHTHLPCLQVGNQKKASYLPMEACKIVEGQRYTKRLNEKQITALLKVTCQRPRDRENDILRTVQHNAYDQDPYAKEFGMNISEKLASVEARILPAPWLKYHENGKEKDCLPQVGQWNMMNKKMINGMTVSRWACVNFSRSVQENVARGFCNELGQMCEVSGMEFNPEPVIPIYSARPDQVEKALKHVYHTSMNKTKGKELELLLAILPDNNGSLYGDLKRICETELGLISQCCLTKHVFKISKQYLANVSLKINVKMGGRNTVLVDAISCRIPLVSDIPTIIFGADVTHPENGEESSPSIAAVVASQDWPEVTKYAGLVCAQAHRQELIQDLYKTWQDPVRGTVSGGMIRDLLISFRKATGQKPLRIIFYRDGVSEGQFYQVLLYELDAIRKACASLEPNYQPPVTFIVVQKRHHTRLFANNHRDKNSTDRSGNILPGTVVDTKICHPTEFDFYLCSHAGIQGTSRPAHYHVLWDENNFTADGIQSLTNNLCYTYARCTRSVSIVPPAYYAHLAAFRARFYLEPEIMQDNGSPGKKNTKTTTVGDVGVKPLPALKENVKRVMFYC
B3: ASK21, endogenous (protein, UniProt Q8LF97 1-351)
chain: MSEGEMAIIKPEMMKSYIWLETADGSIQQVEQEVAMFCPMICQEVIQKGVGSSKNYAISLPQRVNPAMLSLIFDYCRFHQVPGRSNKERKVYDEKFIRMDTKRLCELTSAADSLQLKPLVDLTSRALARIIEGKTPEEIREIFHLPDDLTEEEKLEPLKNTMDDPRIRLLNRLYAKKRKELKEREKLKSVEVEEHVDERSVDDLLSFINGRDPKVVKTSKSKKKNKKRKEQKNGSSNGTCEALEKDLHNLDSKSQSAEIVDNTASCLGDVSNLPSMEDDIFTPKTEFEDGYIDDEIDPALKELLDREVEDFARRLNSSWVLSIGQERQPVNFSINGNGTSRRLTGPAAGHK
B4: DNAJ homologue J3, endogenous (protein, UniProt Q94AW8 1-420)
chain: MFGRGPSKKSDNTKFYEILGVPKSASPEDLKKAYKKAAIKNHPDKGGDPEKFKELAQAYEVLSDPEKREIYDQYGEDALKEGMGGGGGGHDPFDIFSSFFGGGPFGGNTSRQRRQRRGEDVVHPLKVSLEDVYLGTMKKLSLSRNALCSKCNGKGSKSGASLKCGGCQGSGMKVSIRQLGPGMIQQMQHACNECKGTGETINDRDRCPQCKGDKVIPEKKVLEVNVEKGMQHSQKITFEGQADEAPDTVTGDIVFVLQQKEHPKFKRKGEDLFVEHTLSLTEALCGFQFVLTHLDGRSLLIKSNPGEVVKPDSYKAISDEGMPIYQRPFMKGKLYIHFTVEFPDSLSPDQTKALEAVLPKPSTAQLSDMEIDECEETTLHDVNIEDEMRRKAQAQREAYDDDDEDDDHPGGAQRVQCAQQ
B5: AGO5, endogenous (protein, UniProt Q9SJK3 1-997)
chain: MSNRGGGGHGGASRGRGGGRRSDQRQDQSSGQVAWPGLQQSYGGRGGSVSAGRGRGNVGRGENTGDLTATQVPVASAVSGGRGRGNIGDPTFSVASSSKTVSVASSSKEESKNTEVSETMSNLQITSTETKPEMTSLPPASSKAVTFPVRPGRGTLGKKVMVRANHFLVQVADRDLYHYDVSINPEVISKTVNRNVMKLLVKNYKDSHLGGKSPAYDGRKSLYTAGPLPFDSKEFVVNLAEKRADGSSGKDRPFKVAVKNVTSTDLYQLQQFLDRKQREAPYDTIQVLDVVLRDKPSNDYVSVGRSFFHTSLGKDARDGRGELGDGIEYWRGYFQSLRLTQMGLSLNIDVSARSFYEPIVVTDFISKFLNIRDLNRPLRDSDRLKVKKVLRTLKVKLLHWNGTKSAKISGISSLPIRELRFTLEDKSEKTVVQYFAEKYNYRVKYQALPAIQTGSDTRPVYLPMELCQIDEGQRYTKRLNEKQVTALLKATCQRPPDRENSIKNLVVKNNYNDDLSKEFGMSVTTQLASIEARVLPPPMLKYHDSGKEKMVNPRLGQWNMIDKKMVNGAKVTSWTCVSFSTRIDRGLPQEFCKQLIGMCVSKGMEFKPQPAIPFISCPPEHIEEALLDIHKRAPGLQLLIVILPDVTGSYGKIKRICETELGIVSQCCQPRQVNKLNKQYMENVALKINVKTGGRNTVLNDAIRRNIPLITDRPTIIMGADVTHPQPGEDSSPSIAAVVASMDWPEINKYRGLVSAQAHREEIIQDLYKLVQDPQRGLVHSGLIREHFIAFRRATGQIPQRIIFYRDGVSEGQFSQVLLHEMTAIRKACNSLQENYVPRVTFVIVQKRHHTRLFPEQHGNRDMTDKSGNIQPGTVVDTKICHPNEFDFYLNSHAGIQGTSRPAHYHVLLDENGFTADQLQMLTNNLCYTYARCTKSVSIVPPAYYAHLAAFRARYYMESEMSDGGSSRSRSSTTGVGQVISQLPAIKDNVKEVMFYC

No constants are given. Whether binding was seen depends on the method and setting. In cells and extracts the contact can be indirect. These calls come from enrichment with a bait or labelling near it, and not all partners need be listed. Sequences can lack the tags named with a protein.

The target of the test is T1, 3HA-FBW2 (3x HA epitope at the N-terminus of the F-box protein FBW2) (Arabidopsis thaliana). Kind of test: affinity purification with mass spectrometry.
As for “ASK1 (Skp1-like protein 1), endogenous (from UniProt Q39255 1-160)”, the binding entry was “binds”. Turning to CDC48B, endogenous, the binding result is recorded as “binds”. For CDC48C, endogenous the value was “binds”; for CUL-like protein1, endogenous, “binds”. For “CULLIN1 (CUL1), endogenous (from UniProt Q94AH6 1-738)” the value was “binds”; for DNAJ homologue J2, endogenous, “binds”; for Hsp70, endogenous, “binds”. For the molecule Hsp80, endogenous, the binding entry is reported as “binds”.

Hsp90, endogenous: the binding entry is reported as “binds”. For RUB1, endogenous the value was “binds”; for B1, “binds”; for B2, “binds”. For B3 the value was “binds”; for B4, “binds”; for B5, “binds”.
